# Source: PMC5996148
# This is one part of the list.
# How the values were obtained:
# Assay in all cases: protein microarray (ProtoArray v5.0), streptavidin-Alexa Fluor 647
# Details in all cases: 3'-biotin; 20 mM Tris (pH 7.5), 5 mM MgCl2, 100 mM KCl, 0.1% Tween-20, A/T-rich and random oligonucleotide blockers; temperature not stated; high values mean tight binding
# PHGDH (human) = tested on: PHGDH (human)
# PI15 (human) = tested on: PI15 (human)
# PIGA (human) = tested on: PIGA (human)
# PIM2 (human) = tested on: PIM2 (human)
# PIPOX (human) = tested on: PIPOX (human)
# PIR (human) = tested on: PIR (human)
# PITPNC1 (human) = tested on: PITPNC1 (human)
# PKIB (human) = tested on: PKIB (human)
# PKNOX1 (human) = tested on: PKNOX1 (human)
# PLA2G10 (human) = tested on: PLA2G10 (human)
sequence,measurement,setting,value
GGGAGGCTGAGGCAGG [G4-1 biotinylated (PQS2)],binding signal,PHGDH (human),-0.327 z-score
same,binding signal,PI15 (human),-0.309 z-score
same,binding signal,PIGA (human),-0.318 z-score
same,binding signal,PIM2 (human),-0.345 z-score
same,binding signal,PIPOX (human),-0.33 z-score
same,binding signal,PIR (human),-0.312 z-score
same,binding signal,PITPNC1 (human),-0.344 z-score
same,binding signal,PKIB (human),-0.345 z-score
same,binding signal,PKNOX1 (human),-0.339 z-score
same,binding signal,PLA2G10 (human),-0.276 z-score

# Exported bar-delimited: part of the list above
sequence | measurement | setting | value
GGGAGGCTGAGGCAGG [G4-1 biotinylated (PQS2)] | binding signal | PI15 (human) | -0.309 z-score
same | binding signal | PIGA (human) | -0.318 z-score
